Measured values as given in the supplement of paper PMC12067093, “Discovery and optimisation of a covalent ligand for TRIM25 and its application to targeted protein ubiquitination” (Chemical Science, 2025).
This is one part of the list.

Chains of the proteins cited; added tags and fusions are not shown. Lines headed by an entry give the natural chain unless they say otherwise; changes in a name come on top.
UniProt Q9NQ34: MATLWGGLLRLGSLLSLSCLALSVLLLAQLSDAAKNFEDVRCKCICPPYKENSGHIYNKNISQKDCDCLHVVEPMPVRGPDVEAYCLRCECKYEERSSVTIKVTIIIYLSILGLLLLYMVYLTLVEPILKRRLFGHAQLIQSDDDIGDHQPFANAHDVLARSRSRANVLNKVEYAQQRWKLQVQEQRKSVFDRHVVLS
UniProt Q99805: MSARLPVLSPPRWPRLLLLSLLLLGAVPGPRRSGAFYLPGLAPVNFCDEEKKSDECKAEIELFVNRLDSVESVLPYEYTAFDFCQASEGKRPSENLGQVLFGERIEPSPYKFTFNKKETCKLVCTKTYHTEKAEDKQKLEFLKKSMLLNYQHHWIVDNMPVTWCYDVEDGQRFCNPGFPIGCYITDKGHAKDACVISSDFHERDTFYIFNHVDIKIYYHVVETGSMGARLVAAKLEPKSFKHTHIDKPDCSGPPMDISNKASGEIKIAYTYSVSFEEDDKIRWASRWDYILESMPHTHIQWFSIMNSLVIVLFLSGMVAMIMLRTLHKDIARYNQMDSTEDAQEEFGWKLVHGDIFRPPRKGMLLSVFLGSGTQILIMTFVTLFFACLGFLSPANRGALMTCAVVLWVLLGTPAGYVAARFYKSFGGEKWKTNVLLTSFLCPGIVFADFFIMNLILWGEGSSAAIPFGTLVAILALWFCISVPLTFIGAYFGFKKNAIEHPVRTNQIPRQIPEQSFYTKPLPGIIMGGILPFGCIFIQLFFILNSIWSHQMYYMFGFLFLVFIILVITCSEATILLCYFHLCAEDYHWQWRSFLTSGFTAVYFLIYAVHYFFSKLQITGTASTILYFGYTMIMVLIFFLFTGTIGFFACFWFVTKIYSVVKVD
UniProt Q9Y4G6: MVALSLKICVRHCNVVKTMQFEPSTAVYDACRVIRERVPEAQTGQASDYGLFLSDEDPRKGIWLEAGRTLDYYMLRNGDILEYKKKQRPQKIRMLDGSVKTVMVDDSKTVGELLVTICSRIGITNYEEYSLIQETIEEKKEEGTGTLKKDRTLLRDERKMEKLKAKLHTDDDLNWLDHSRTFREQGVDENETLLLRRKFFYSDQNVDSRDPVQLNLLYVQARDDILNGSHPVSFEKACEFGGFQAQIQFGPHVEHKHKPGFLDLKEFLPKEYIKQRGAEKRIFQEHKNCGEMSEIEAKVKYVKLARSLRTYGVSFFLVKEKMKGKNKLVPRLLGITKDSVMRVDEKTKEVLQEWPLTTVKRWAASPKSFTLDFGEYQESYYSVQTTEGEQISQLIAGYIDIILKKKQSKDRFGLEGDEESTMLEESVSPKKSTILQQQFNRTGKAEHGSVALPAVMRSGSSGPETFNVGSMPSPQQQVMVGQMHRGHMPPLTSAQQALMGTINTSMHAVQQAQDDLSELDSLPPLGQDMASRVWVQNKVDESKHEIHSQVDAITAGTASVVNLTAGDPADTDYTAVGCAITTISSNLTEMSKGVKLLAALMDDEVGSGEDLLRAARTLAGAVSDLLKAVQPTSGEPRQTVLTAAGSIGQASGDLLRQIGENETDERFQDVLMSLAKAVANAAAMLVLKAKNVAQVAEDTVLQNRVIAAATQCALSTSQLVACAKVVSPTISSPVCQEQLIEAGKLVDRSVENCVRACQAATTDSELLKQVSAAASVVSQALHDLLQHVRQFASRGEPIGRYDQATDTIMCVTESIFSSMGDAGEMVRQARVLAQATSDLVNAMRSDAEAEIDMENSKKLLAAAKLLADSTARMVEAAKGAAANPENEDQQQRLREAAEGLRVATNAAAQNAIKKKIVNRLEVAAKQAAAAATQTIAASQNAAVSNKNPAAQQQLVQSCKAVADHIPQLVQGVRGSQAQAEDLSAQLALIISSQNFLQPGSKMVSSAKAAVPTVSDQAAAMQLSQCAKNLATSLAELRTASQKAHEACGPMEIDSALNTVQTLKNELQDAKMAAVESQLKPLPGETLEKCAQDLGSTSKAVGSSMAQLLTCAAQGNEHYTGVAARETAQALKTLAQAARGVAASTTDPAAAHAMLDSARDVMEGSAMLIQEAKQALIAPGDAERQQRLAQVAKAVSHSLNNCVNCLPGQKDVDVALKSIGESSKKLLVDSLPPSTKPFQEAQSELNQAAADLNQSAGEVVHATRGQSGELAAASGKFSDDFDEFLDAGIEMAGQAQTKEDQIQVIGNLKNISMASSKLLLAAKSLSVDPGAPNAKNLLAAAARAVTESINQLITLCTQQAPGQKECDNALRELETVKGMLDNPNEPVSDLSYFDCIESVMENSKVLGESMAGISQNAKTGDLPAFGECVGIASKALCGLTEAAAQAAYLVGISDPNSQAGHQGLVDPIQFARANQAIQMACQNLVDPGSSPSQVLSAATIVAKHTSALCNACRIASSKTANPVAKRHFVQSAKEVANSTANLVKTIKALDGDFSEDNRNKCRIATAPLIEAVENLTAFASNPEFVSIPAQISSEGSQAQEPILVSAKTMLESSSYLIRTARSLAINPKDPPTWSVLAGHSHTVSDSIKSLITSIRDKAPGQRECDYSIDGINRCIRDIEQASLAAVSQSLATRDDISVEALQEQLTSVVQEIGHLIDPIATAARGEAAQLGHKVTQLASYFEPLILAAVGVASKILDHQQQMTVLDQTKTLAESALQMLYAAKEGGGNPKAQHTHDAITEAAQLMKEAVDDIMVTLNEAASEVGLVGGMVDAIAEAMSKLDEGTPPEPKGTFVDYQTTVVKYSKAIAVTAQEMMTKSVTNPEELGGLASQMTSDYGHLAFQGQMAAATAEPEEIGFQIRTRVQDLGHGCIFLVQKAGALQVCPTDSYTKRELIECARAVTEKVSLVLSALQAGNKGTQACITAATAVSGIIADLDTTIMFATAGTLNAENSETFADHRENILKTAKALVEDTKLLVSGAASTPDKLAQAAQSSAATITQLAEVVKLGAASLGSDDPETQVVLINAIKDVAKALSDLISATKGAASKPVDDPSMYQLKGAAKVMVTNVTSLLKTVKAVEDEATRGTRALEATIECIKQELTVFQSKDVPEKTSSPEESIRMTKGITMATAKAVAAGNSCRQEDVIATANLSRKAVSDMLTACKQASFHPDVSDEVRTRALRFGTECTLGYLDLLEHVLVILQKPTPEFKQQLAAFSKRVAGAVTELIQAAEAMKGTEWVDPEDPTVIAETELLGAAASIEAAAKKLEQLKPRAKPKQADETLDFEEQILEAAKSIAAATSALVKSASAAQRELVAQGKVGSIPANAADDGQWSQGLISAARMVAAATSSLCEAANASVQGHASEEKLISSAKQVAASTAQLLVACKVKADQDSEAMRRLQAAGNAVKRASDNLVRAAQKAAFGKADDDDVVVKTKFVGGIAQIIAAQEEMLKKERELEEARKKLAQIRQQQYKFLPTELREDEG
UniProt P57088: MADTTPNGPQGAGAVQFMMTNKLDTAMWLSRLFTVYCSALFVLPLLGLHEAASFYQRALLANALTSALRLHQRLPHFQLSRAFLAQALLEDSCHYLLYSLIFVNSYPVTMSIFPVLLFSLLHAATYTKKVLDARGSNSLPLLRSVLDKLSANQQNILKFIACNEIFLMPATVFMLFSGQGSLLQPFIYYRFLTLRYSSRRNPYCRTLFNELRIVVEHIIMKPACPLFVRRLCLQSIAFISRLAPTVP
UniProt Q68CZ2: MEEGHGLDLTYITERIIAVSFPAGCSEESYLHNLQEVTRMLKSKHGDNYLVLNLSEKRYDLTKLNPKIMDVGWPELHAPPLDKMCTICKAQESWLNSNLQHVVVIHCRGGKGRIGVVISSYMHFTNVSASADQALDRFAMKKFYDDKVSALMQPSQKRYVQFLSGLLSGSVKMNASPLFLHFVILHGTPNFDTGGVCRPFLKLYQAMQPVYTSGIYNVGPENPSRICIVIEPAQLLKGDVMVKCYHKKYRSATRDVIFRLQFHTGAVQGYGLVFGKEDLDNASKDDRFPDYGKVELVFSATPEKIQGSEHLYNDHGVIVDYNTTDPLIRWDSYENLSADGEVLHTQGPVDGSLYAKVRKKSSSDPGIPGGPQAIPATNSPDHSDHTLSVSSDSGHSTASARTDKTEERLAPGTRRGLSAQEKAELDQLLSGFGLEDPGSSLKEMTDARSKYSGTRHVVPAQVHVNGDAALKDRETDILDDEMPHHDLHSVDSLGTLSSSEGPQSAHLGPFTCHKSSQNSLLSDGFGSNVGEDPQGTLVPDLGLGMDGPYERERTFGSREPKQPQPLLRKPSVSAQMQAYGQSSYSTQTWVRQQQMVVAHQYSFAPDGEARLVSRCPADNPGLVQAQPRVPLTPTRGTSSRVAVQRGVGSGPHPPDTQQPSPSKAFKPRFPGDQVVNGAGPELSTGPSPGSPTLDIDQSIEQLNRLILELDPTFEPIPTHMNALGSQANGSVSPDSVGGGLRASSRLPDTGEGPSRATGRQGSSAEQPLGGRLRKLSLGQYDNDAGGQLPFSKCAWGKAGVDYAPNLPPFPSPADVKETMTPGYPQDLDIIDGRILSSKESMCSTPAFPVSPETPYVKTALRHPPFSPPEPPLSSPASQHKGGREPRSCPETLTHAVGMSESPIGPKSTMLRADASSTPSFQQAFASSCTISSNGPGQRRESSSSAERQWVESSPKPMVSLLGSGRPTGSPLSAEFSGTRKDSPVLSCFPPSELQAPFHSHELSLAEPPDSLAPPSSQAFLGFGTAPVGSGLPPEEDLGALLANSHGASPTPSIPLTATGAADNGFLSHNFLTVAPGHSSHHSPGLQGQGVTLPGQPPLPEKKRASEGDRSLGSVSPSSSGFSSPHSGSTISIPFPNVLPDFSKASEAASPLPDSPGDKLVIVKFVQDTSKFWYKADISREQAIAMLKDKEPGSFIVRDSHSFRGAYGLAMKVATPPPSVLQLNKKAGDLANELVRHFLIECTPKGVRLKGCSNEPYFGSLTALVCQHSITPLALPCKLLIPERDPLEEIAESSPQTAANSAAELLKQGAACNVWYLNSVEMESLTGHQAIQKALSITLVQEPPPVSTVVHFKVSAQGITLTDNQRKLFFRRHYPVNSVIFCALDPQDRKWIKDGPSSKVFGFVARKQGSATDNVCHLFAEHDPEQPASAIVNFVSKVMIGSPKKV
UniProt Q9Y320, whole entry, looked up: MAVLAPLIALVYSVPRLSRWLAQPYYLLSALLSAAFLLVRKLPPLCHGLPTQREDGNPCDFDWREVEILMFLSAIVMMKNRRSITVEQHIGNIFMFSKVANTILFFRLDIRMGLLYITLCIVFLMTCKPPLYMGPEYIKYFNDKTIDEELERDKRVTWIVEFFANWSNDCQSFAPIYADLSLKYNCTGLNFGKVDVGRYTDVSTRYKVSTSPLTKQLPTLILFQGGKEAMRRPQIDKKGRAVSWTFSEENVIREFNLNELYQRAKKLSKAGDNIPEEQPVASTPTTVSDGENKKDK
UniProt Q6PL24: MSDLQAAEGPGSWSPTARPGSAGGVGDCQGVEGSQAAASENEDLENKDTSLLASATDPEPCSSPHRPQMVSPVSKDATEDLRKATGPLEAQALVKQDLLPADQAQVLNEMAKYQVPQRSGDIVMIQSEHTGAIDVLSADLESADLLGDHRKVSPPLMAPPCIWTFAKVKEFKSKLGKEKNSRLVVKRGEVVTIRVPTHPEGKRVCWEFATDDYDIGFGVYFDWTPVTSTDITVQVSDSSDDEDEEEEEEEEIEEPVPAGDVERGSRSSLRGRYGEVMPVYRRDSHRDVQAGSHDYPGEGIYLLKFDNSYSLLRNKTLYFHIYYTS
UniProt O95985: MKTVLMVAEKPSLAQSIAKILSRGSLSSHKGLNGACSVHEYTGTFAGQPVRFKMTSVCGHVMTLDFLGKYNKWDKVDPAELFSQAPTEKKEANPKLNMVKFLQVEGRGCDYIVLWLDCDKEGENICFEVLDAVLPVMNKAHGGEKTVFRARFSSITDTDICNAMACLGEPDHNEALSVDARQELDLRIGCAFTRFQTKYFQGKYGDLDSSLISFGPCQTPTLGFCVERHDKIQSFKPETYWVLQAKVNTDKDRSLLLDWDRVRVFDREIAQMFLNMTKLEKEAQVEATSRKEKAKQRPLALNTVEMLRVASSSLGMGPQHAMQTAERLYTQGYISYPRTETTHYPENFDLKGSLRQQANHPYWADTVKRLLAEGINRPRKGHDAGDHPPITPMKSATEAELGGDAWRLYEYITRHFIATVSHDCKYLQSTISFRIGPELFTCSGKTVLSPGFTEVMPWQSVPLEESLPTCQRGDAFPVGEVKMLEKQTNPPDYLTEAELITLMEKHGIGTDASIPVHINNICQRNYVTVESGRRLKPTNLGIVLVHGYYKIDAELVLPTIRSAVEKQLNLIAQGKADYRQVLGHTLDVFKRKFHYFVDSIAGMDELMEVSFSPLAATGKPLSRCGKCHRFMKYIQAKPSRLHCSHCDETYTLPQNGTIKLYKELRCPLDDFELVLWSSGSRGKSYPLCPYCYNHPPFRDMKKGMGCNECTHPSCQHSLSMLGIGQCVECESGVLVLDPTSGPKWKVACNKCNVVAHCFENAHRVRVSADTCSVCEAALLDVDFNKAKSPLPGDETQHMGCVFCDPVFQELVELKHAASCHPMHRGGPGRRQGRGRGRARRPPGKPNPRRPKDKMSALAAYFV

Compound: CC1Cc2ccccc2N1C(=O)C1CCCN(C1)C(=O)CCl (mixture of isomers) [TRIM25 ligand 11 (diastereomer mixture)]
Test: probe-labelled cysteine peptide fold change vs DMSO (competition) (log2 fold change); higher = less target engagement (more negative = stronger competition)
Settings: THP-1, incubation time: 4 h
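Note: competitive chemoproteomic profiling in live THP-1 cells with an iodoacetamide desthiobiotin (IA-DTB) probe, comparing probe-labelled peptide intensities in compound-treated cells against DMSO-treated controls.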

Row | Target | probe-labelled cysteine peptide fold change (10 µM) | probe-labelled cysteine peptide fold change (50 µM)
1 | TMEM173_Q86WV6_12_PHSSLHPSIPCPR (UniProt Q86WV6) | 0.0164 | -0.104
2 | TNIP1_Q15025_171_LETTLSVCAEEPDHGQLFTHLGR (UniProt Q15025) | 0.129 | -0.0744
3 | TM7SF3_Q9NS93_180_GVDPPPCDAGTDQDSR (UniProt Q9NS93) | 0.0229 | -0.095
4 | TMX1_Q9H3N1_106_FIITALPTIYHCK (UniProt Q9H3N1) | -0.0411 | -0.0895
5 | TOP1_P11387_504_AGNEKEEGETADTVGCCSLR (UniProt P11387) | -0.449 | -0.228
6 | TNFAIP2_Q03169_45_GLANVFCVFTK (UniProt Q03169) | -0.27 | -0.274
7 | TNPO1_Q92973_683_SNILTLMYQCMQDK (UniProt Q92973) | 0.0486 | -0.108
8 | TOPBP1_Q92547_911_VVVCVSK (UniProt Q92547) | -0.129 | -0.0141
9 | TOP2B_Q02880_93_KTQLEHILLRPDTYIGSVEPLTQFMWVYDEDVGMNCR (UniProt Q02880) | -0.0666 | -0.0769
10 | TNPO1_Q92973_153_LCSLLDSEDYNTCEGAFGALQK (UniProt Q92973) | -0.0199 | -0.114
11 | TMEM9B_Q9NQ34_86_GPDVEAYCLR (UniProt Q9NQ34) | 0.21 | 0.216
12 | TMPPE_Q6ZT21_358_ALEGCSPDHTIILLAHQPLAAK (UniProt Q6ZT21) | 0.028 | -0.085
13 | TOP2B_Q02880-2_7_SGGCGAGAGVGGGNGALTWVNNAAK (UniProt Q02880) | -0.0783 | 
14 | TM9SF2_Q99805_194_DACVISSDFHER (UniProt Q99805) | 0.187 | 0.0277
15 | TNPO3_Q9Y5L0_204_CLGSWFNLGVLDSNFMANNK (UniProt Q9Y5L0) | -0.288 | -0.153
16 | TNRC18_O15417_475_ELLKPEADPRPCER (UniProt O15417) | -0.148 | -0.0794
17 | TLN2_Q9Y4G6_1047_AHEACGPMEIDSALNTVQTLK (UniProt Q9Y4G6) | -0.0171 | 0.0238
18 | TP53BP2_Q13625_1083_EGDCMTIIHREDEDEIEWWWAR (UniProt Q13625) | -0.000192 | -0.29
19 | TOMM70_O94826_136_YEQAIQCYTEAISLCPTEK (UniProt O94826) | 0.145 | 0.205
20 | TMEM33_P57088_224_IVVEHIIMKPACPLFVR (UniProt P57088) | -0.18 | 0.0095
21 | TONSL_Q96HA7_1345_RLCAEDR (UniProt Q96HA7) | 0.128 | 0.0935

Row | Target | probe-labelled cysteine peptide fold change (10 µM) | probe-labelled cysteine peptide fold change (50 µM)
22 | TOP2A_P11388_455_NSTECTLILTEGDSAK (UniProt P11388) | -0.0545 | -0.0537
23 | TMPO_P42167_363_EMFPYEASTPTGISASCR (UniProt P42167) | -0.17 | -0.148
24 | TOMM70_O94826_317_IISECSK (UniProt O94826) | -0.112 | 0.0394
25 | TOP2A_P11388_392_SFGSTCQLSEK (UniProt P11388) | 0.0688 | -0.0495
26 | TPI1_P60174_124_DCGATWVVLGHSER (UniProt P60174) | 0.1 | 0.0907
27 | TNS3_Q68CZ2_1381_RHYPVNSVIFCALDPQDRK (UniProt Q68CZ2) | -0.0671 | 0.174
28 | TOP2B_Q02880_321_WDVCLTLSEK (UniProt Q02880) | 0.192 | 0.137
29 | TLR2_O60603_454_IHSVTGCIPK (UniProt O60603) | 0.0287 | 0.00221
30 | TNPO2_O14787_375_CSAAALDVLANVFR (UniProt O14787) | 0.125 | 0.388
31 | TMOD3_Q9NYL9_231_CFSLAATR (UniProt Q9NYL9) | -0.00399 | 0.00779
32 | TOMM40_O96008_74+76_TPGAATASASGAAEDGACGCLPNPGTFEECHRK (UniProt O96008) | 0.168 | -0.158
33 | TNPO3_Q9Y5L0_908_QVTSAEECK (UniProt Q9Y5L0) | 0.047 | 0.0508
34 | TNFAIP2_Q03169_429_ANVIANINNCLSFR (UniProt Q03169) | 0.0995 | 0.132
35 | TLN1_Q9Y490_286_NCGQMSEIEAK (UniProt Q9Y490) | -0.114 | -0.122
36 | TOPORS_Q9NS56_550_GHCDSSTR (UniProt Q9NS56) | 0.107 | -0.426
37 | TMEM9B_Q9NQ34_66_DCDCLHVVEPMPVRGPDVEAYCLR (UniProt Q9NQ34) | 0.075 | -0.0614
38 | TMUB2_Q71RG4_236+240_SLNITDNCVIHCHR (UniProt Q71RG4) | -0.135 | 0.171
39 | TOR3A_Q9H497_385_EEQLFSSQGCK (UniProt Q9H497) | 0.032 | 0.371
40 | TNFAIP8L1_Q8WVP5_153_INHVFGHLADCDFLAALYGPAEPYR (UniProt Q8WVP5) | -0.237 | -0.359
41 | TNS3_Q68CZ2_615_CPADNPGLVQAQPR (UniProt Q68CZ2) | 0.0127 | -0.206
42 | TMEM248_Q9NWD8_305_QSNPEFCPEK (UniProt Q9NWD8) | 0.202 | 0.0568

Row | Target | probe-labelled cysteine peptide fold change (10 µM) | probe-labelled cysteine peptide fold change (50 µM)
43 | TMX2_Q9Y320_46_KLPPLCHGLPTQR (UniProt Q9Y320) | -0.0692 | 0.186
44 | TOP2B_Q02880_426_AASNCGIVESILNWVK (UniProt Q02880) | -0.12 | -0.171
45 | TMED5_Q9Y3A6_107_KSDGVHTVETEVGDYMFCFDNTFSTISEK (UniProt Q9Y3A6) | -0.122 | -0.241
46 | TMED8_Q6PL24_161_VSPPLMAPPCIWTFAK (UniProt Q6PL24) | -0.0272 | -0.159
47 | TOP3B_O95985_36_GLNGACSVHEYTGTFAGQPVR (UniProt O95985) | 0.33 | 0.0672
48 | TNPO1_Q92973_142_LCSLLDSEDYNTCEGAFGALQK (UniProt Q92973) | -0.143 | 0.104
49 | TONSL_Q96HA7_561_DYCGWTPLHEACNYGHLEIVR (UniProt Q96HA7) | 0.18 | 0.0921
50 | TOP3B_O95985_58_MTSVCGHVMTLDFLGK (UniProt O95985) | 0.0618 | -0.113
51 | TLN2_Q9Y4G6_2153_ALEATIECIK (UniProt Q9Y4G6) | -0.093 | 0.017
52 | TMEM106B_Q9NUM4_61+64_DSVTCPTCQGTGR (UniProt Q9NUM4) | -0.122 | -0.005
53 | TLN1_Q9Y490_236+243_ACEFAGFQCQIQFGPHNEQK (UniProt Q9Y490) | -0.0939 | 0.0364
54 | TM9SF1_O15321_68_VGPYHNPQETYHYYQLPVCCPEK (UniProt O15321) | 0.0232 | -0.197
55 | TMEM33_P57088_204_RNPYCR (UniProt P57088) | 0.123 | 0.149
56 | TM2D3_Q9BRN9_166_DHVHCLGNR (UniProt Q9BRN9) | -0.109 | -0.163
57 | TOMM40_O96008_76_TPGAATASASGAAEDGACGCLPNPGTFEECHRK (UniProt O96008) | -0.21 | -0.316
58 | TMED3_Q9Y3Q3_144_VTALTQMESACVTIHEALK (UniProt Q9Y3Q3) | 0.283 | 0.0887
59 | TNKS1BP1_Q9C0C2_1373_EHGVGGVSQCPEPGLR (UniProt Q9C0C2) | 0.0273 | -0.165
60 | TMX2_Q9Y320_186_YNCTGLNFGK (UniProt Q9Y320) | 0.0602 | 0.116
61 | TLN1_Q9Y490_956_ASAGPQPLLVQSCK (UniProt Q9Y490) | -0.192 | -0.195
62 | TNFAIP8_O95379_165_VNNVFDHFSDCEFLAALYNPFGNFKPHLQK (UniProt O95379) | 0.088 | -0.426
63 | TOE1_Q96GM8_371_KQVCGDSIKPEETEQEVAADETR (UniProt Q96GM8) | -0.0413 | -0.201

Row | Target | probe-labelled cysteine peptide fold change (10 µM) | probe-labelled cysteine peptide fold change (50 µM)
64 | TMED4_Q7Z7H5_41_RCFIEEIPDETMVIGNYR (UniProt Q7Z7H5) | -0.113 | 0.12
65 | TLN1_Q9Y490_1927_VQELGHGCAALVTK (UniProt Q9Y490) | 0.12 | 0.0376
66 | TOR2A_Q5JU69_54_CTLGAFCECDFRPDLPGLECDLAQHLAGQHLAK (UniProt Q5JU69) | 0.174 | 0.343
67 | TOPBP1_Q92547_1284_IDYCHLIEK (UniProt Q92547) | 0.0461 | 0.113
68 | TMTC3_Q6ZXV5_794_CLLETLALAPHEEYIQR (UniProt Q6ZXV5) | 0.122 | 0.113
69 | TNS3_Q68CZ2_1381_HYPVNSVIFCALDPQDRK (UniProt Q68CZ2) | -0.0374 | 0.0639
70 | TMEM87A_Q8NBN3_89_SADCYNEIYNFK (UniProt Q8NBN3) | -0.0384 | 0.0204
71 | TM9SF2_Q99805_56_KSDECK (UniProt Q99805) | -0.0321 | -0.204
72 | TMEM214_Q6NUQ4_392_ELLSSLTECLTVDPLSASVWR (UniProt Q6NUQ4) | -0.0687 | -0.168
73 | TOR1A_O14656_50_LYCLFAECCGQK (UniProt O14656) | 0.0352 | 0.154
74 | TNPO3_Q9Y5L0_580_ITECLSELCSVQVMALKK (UniProt Q9Y5L0) | -0.0701 | -0.0556
75 | TOP2B_Q02880_271_AYDLAGSCR (UniProt Q02880) | 0.2 | 0.173
76 | TNRC18_O15417_2921_CLVVGLEQYEQMLK (UniProt O15417) | -0.133 | -0.173
77 | TMLHE_Q9NVH6_103_SLDTASVDLCIKPK (UniProt Q9NVH6) | -0.0564 | -0.192
78 | TNPO1_Q92973_103_SECLNNIGDSSPLIR (UniProt Q92973) | 0.0608 | -0.0391
79 | TMCO4_Q5TGY1_423_DCQGIIEDVILLGAPVEGEAK (UniProt Q5TGY1) | -0.359 | -0.457
80 | TNRC18_O15417_2204_GNRPHIYCLEQLLQEAIIDVRPASTR (UniProt O15417) | -0.102 | 0.166
81 | TNS3_Q68CZ2_1381_HYPVNSVIFCALDPQDR (UniProt Q68CZ2) | 0.12 | 0.192
82 | TMEM30A_Q9NV96_17_AMNYNAKDEVDGGPPCAPGGTAK (UniProt Q9NV96) | -0.188 | -0.287
83 | TOP2A_P11388_300_WEVCLTMSEK (UniProt P11388) | -0.00381 | 0.176
